Assay results as given in patent publication US20230000853A1, “PHARMACEUTICAL COMPOSITION CONTAINING NITROXOLINE, NITROXOLINE TABLET, PREPARATION METHOD THEREFOR AND USE THEREOF” (JIANGSU YAHONG MEDITECH CO., LTD., priority 2019, published 2023).
Some results were stated once for a whole list of compounds, not compound by compound. At least one compound was matched to its structure with a doubt left.

Assay: Particle size determination by Malvern laser particle size analyzer, wet method
Type: physicochemical
Details: raw material before pulverizing
Protocol: The initial particle size D90 of the raw material nitroxoline or nitroxoline lysine salt was more than 100 μm. The raw material was pulverized with the mechanical mill to obtain the raw material having the particle size I, II, III or V in the following Table 1. The raw material was pulverized with the jet mill to obtain the raw material having the particle size IV in the following Table 1.
Determination was carried out on the Malvern laser particle size analyzer MS2000 by wet method according to the operation requirements of the instrument, the dispersant was an aqueous Tween 80 solution, and the mass fraction of Tween 80 in the aqueous solution was 0.5%.

| SMILES | Initial particle size D90 |
| --- | --- |
| NCCCC[C@H](N)C(=O)O.O=[N+]([O-])c1ccc(O)c2ncccc12 [nitroxoline lysine salt, Nitroxoline lysine salt] | more than 100 μm |
| O=[N+]([O-])c1ccc(O)c2ncccc12 [nitroxoline, 5-nitro-8-hydroxyquinoline] | more than 100 μm |
